{"source": "patent US10350262B2", "about": "“MCJ agonists and uses therefor” (priority 2015, dated 2019)", "key": {"Molm13 cells [1]": {"test_system": "Molm13 cells", "experiment": "Viable cell number of Molm13 AML cells", "assay_type": "cell-based", "conditions": "peptide 25 μM in combination with AC220 2 nM, 3 days"}, "Molm13 cells [2]": {"test_system": "Molm13 cells", "experiment": "Mitochondrial ROS (mROS) by PY1 staining, flow cytometry", "assay_type": "cell-based", "conditions": "22 h", "procedure": "(§1) FIG. 17A-D provides graphs of results showing MCJ agonist inhibition of AML. FIG. 17A-B show results when Molm13 cells (10^4 cells) were incubated in the presence of medium, TAT-N-MCJ-mts peptide (TAT) (25 μM), MITO-N-MCJ peptide (25 μM), AC220 (2 nM) or the combination of the peptides with AC220. Numbers of viable cells was measured after 3 days. […] The percentage of live cells negative for TMRE (TMREneg) is shown. […] The percentage of live PY1^+ cells is shown.\n(§2) Experiments were also performed to assess the effect of MCJ agonists on mitochondrial membrane potential by staining with the TMRE dye. Given the more modest effects observed for TAT-N-MCJ-mts (FIG. 17A-B), 50 μM of this peptide was used in the experiments. […] AML cells are sensitive to the levels of reactive oxygen species (ROS), which are primarily generated in mitochondria as a result of electron leakage from the ETC. It was previously shown that MCJ can interfere with the formation of ETC respiratory supercomplexes [Hatle, K., et al., (2013) Mol Cell boil 33:2302-2314] that are formed to facilitate electron transport between complexes and minimize electron leakage [see Acin-Perez, R. et al., (2008) Mol Cell 32:529-539 and Lapuente-Brun, E. et al., (2013) Science 340:1567-1570]. […] The effect of the MCJ agonists was already observed after 5 h of treatment. […]"}, "MCF7/ADR cells [3]": {"test_system": "MCF7/ADR cells", "experiment": "Bright field microscopy of MCF7/ADR cells", "assay_type": "cell-based, human", "conditions": "50 μM, two days; relative to medium only", "procedure": "FIG. 3 provides photomicrographic images of MCF7/ADR cells that were incubated for two days in column (1) media alone; column (2) media that included a 50 μM concentration of an N-MCJ polypeptide (SEQ ID NO:2); column (3) media that included a 50 μM concentration of the TAT-N-MCJ polypeptide (SEQ ID NO:18); and column (4) media that included a 50 μM concentration of the TAT-N-MCJ-MTS polypeptide (SEQ ID NO:6).\nBright Field Microscopy. Live cells were imaged at an inverted bright field microscope (Leica Microsystems). 400× magnification was used."}, "MCF7/ADR cells [4]": {"test_system": "MCF7/ADR cells", "experiment": "Viable cell count of MCF7/ADR cells (Trypan blue)", "assay_type": "cell-based, human", "procedure": "(§3) FIG. 15A provides results of Western blot analysis for MCJ in MCF7 cells and MCF7/ADR (ADR) cells. Actin was used as loading control. […] Viable cells were counted 2 days later.\n(§4) FIG. 16A-B provides graphs showing response to MCJ agonists. […] Cells were harvested 2 days later and viable cells were counted. […] Mice were harvested at day 4. The size of a tumor over time was determined by caliper measurements, and is represented as a percentage relative to the initial size prior to the treatment. p<0.05 as determined by a paired t-test.\n(§5) Cell Culture. MCF7 and MCF7/ADR cells were a kind gift from Dr. Ken Cowan (National Cancer Institute, Bethesda, Md.). MCF7/siMCJ cells were generated by stable transfection with a plasmid expressing a shRNA for MCJ (siMCJ) as described in Hatle, K. M., et al., Mol Cell Biol 27, 2952-2966 (2007). All cells were maintained at 37 C, 5% CO2 in RPMI-1640 (Life technologies, Inc., Gaithersburg, Md.) containing 5% FBS.\n(§6) Cell count. Cells were trypsinized, washed, and resuspended in medium. Number of viable cells was measured by counting using Trypan blue dye to exclude dead cells (visualized as blue).\n(§7) Doxorubicin and peptides treatment in vitro. Doxorubicin (Sigma-Aldrich) was used at 3 μM final concentration. The three different peptides described in the examples (SEQ ID NO: 2, 18 or 6) were resuspended at 10 mM stock concentration in PBS. The peptides were used a different concentration as indicated for each example (1, 10, or 50 μM). Cells were plated the day prior the treatment (18-20 h prior to the treatment). For treatments with peptides only, peptides were added to the plates at the indicated concentrations, and after 2 or 3 days (as indicated for each example) cells were trypsinized, resuspended, and counted. For the treatment with doxorubicin and peptides, cells were pretreated with the corresponding peptide for 4 h prior to adding doxorubicin.\nMCF7/ADR cells were incubated (using standard procedures) for three days in media alone or in media plus three different MCJ based polypeptides each at a concentration of 50 μM in media. The cells of set one were incubated in media and served as a control set. The cells of set two were incubated in media that included a 50 μM concentration of a MCJ polypeptide without a targeting agent polypeptide. The amino acid sequence of the N-MCJ polypeptide without a targeting agent polypeptide was […] (SEQ ID NO:2). The cells of set three were incubated in media that included a 50 μM concentration of a TAT-N-MCJ polypeptide. The amino acid sequence of the TAT-N-MCJ polypeptide was: […] (SEQ ID NO:18).\nMCF7 cells and MCF7/ADR cells were incubated (using standard procedures) for two days in media alone or in media that included different concentrations of the TAT-N-MCS-MTS polypeptide having the amino acid sequence set forth as: […]"}, "[5]": {"test_system": "mammary tumors in MCJ KO MMTV mice", "experiment": "Doxorubicin and peptide treatment in vivo, mammary tumor size in MCJ KO MMTV mice", "set-up": "species or system mouse", "procedure": "as §4\nMice. […] MCJ KO mice were crossed with the previously described MMTV-PyMT mice [see: Guy, C. T., et. al., Mol Cell Biol 12, 954-961 (1992)] to generate MCJ KO MMTV mice. Wildtype MMTV mice and MCJ KO MMTV mice were used for the experiments. All mice were housed under sterile conditions at the animal care facility at the University of Vermont. The procedures were approved by the University of Vermont Institutional Animal Care and Use Committee.\nDoxorubicin and peptides treatment in vivo. MTV mice and MCJ KO MMTV mice were used to assay response to doxorubicin and MCJ peptides. The treatments were initiated around 2.5-3 months of age when the mammary tumor these mice develop reach 300 mm^3. […] Perpendicular tumor diameters were measured using a vernier scale caliper and tumor volume estimated using the formula for ellipsoid (width×high×length)/2. […]\nThe size of a tumor over time was determined by caliper measurements, and is represented as a percentage relative to the initial size prior to the treatment. p<0.05 as determined by a paired t-test. […]"}, "MCF7/ADR cells [6]": {"test_system": "MCF7/ADR cells", "experiment": "Seahorse MitoStress assay, oxygen consumption rate (OCR)", "assay_type": "cell-based, human", "conditions": "50 μM, pretreated 9 h", "procedure": "FIG. 14A-C provides graphs showing effect of MCJ agonist polypeptides on OCR and respiratory capacity of cells. […] Cells pretreated with medium alone (medium), TAT-N-MCJ-mts peptide (TAT peptide) (50 μM) (FIG. 14A) or MITO-N-MCJ peptide (Mito peptide) (25 μM) (FIG. 14B) for the last 9 h prior to the MitoStress assay as described elsewhere herein. Standard flow chart for the treatments as recommended by the manufacturer (Seahorse Bioscience, Billerica, Mass.) was used: oligomycin (O), FCCP (F) and rotenone and antimycin (R+A). […] Oligomycin was replaced by vehicle (buffer) or MITO-N-MCJ peptide.\nHuman breast cancer cell lines MCF7 cells with siRNA-mediated knockdown of MCJ (MCF7/siMCJ cells) have increased Complex I activity. […] In addition, maximum respiratory capacity (determined after addition of the mitochondrial uncoupler FCCP) was also drastically higher in MCF7/siMCJ cells (FIG. 12A). […]\nThe agonist polypeptides were tested to determine whether they would restore particular MCJ functions and the effect of the agonist polypeptides in mitochondrial respiration was examined. […] OCR was determined by the Seahorse analyzer in MCF7/ADR cells and MCF7/ADR cells that were pretreated with the TAT-N-MCJ-mts peptide for 9 h. […]"}, "Molm13 cells [7]": {"test_system": "Molm13 cells", "experiment": "Mitochondrial membrane potential by TMRE staining, flow cytometry", "assay_type": "cell-based", "conditions": "50 μM, 22 h", "procedure": "as §1, §2"}, "MCF7 cells": {"test_system": "MCF7 cells", "experiment": "Viable cell count of MCF7 cells (Trypan blue)", "assay_type": "cell-based, human", "from_the_text": "as §3, §5, §6\nas §7, with “For the treatment with doxorubicin and peptides, cells were pretreated with the corresponding peptide for 4 h prior to adding doxorubicin.” left out"}, "[8]": {"conditions": "10 μM or 50 μM, two days, vs media alone or 1 μM"}}, "note": "At least one peptide structure holds a part that was inferred or is arguable (an end, a ring closure or a residue). No end group written: not given here."}
{"sequence": "YGKKRRQRRGMAARGVIAPVGESLRYAEYLGTRTWVPKGLKSP [TAT-N-MCJ-MTS]", "values": [{"measurement": "cells refractory to AC220 (number of viable cells)", "setting": "Molm13 cells [1]", "value": "effectively eliminated this resistant group"}, {"measurement": "production of mROS (live PY1+ cells)", "setting": "Molm13 cells [2]; 50 μM in combination with AC220 2 nM", "value": "clearly synergized with AC220 to cause a massive production of mROS"}, {"measurement": "production of mROS (live PY1+ cells)", "setting": "Molm13 cells [2]; 50 μM", "value": "could induce the production of mROS"}, {"measurement": "proliferation / cells attached to the culture plate (photomicrographs)", "setting": "MCF7/ADR cells [3]", "value": "very few cells remain attached to the culture plate"}, {"measurement": "reduction in the cell number", "setting": "MCF7/ADR cells [4]; [8]", "value": "significantly greater reduction in the cell number"}, {"measurement": "expansion of cells (viable cells)", "setting": "MCF7/ADR cells [4]; 50 μM, peptide by itself, 2 days", "value": "drastic effect in limiting the expansion of these resistant cells"}, {"measurement": "cell number / cell death", "setting": "MCF7/ADR cells [4]; 50 μM, three days, vs media alone, N-MCJ, TAT-N-MCJ", "value": "Significantly more cell death occurred"}, {"measurement": "cancer cell death", "setting": "MCF7/ADR cells [4]; peptide 2 μM plus doxorubicin 3 μM, vs media only or doxorubicin alone", "value": "significantly higher level of cancer cell death"}, {"measurement": "cell death", "setting": "MCF7/ADR cells [4]; peptide 2 μM without doxorubicin, vs media only or doxorubicin 3 μM alone", "value": "significantly more cell death"}, {"measurement": "viable cells", "setting": "MCF7/ADR cells [4]; peptide 5 μM alone (10 times lower dose), 2 days", "value": "did not have a significant effect"}, {"measurement": "response to doxorubicin (viable cells)", "setting": "MCF7/ADR cells [4]; peptide 5 μM plus doxorubicin 3 μM, 2 days", "value": "clearly increased the response to doxorubicin"}, {"measurement": "cancer cell death", "setting": "MCF7/ADR cells [4]; peptide 50 μM plus doxorubicin 3 μM, vs doxorubicin alone or doxorubicin plus TAT-MCJ or N-MCJ", "value": "significantly higher level of cancer cell death"}, {"measurement": "tumor size (percentage relative to initial size)", "setting": "[5]; doxorubicin 2 mg/Kg i.p. plus peptide 10 mg/Kg s.c. at day 0, 2 and 3, harvested day 4, n=3", "value": "regression or retarded growth in tumors"}, {"measurement": "change in tumor size after 4 days of treatment", "setting": "[5]; doxorubicin 2 mg/Kg i.p. plus peptide s.c. (Dox+pep), vs doxorubicin alone", "value": "greater reduction in the tumor size"}, {"measurement": "basal OCR", "setting": "MCF7/ADR cells [6]", "value": "decreased basal OCR levels"}, {"measurement": "maximum respiratory capacity (OCR levels with FCCP)", "setting": "MCF7/ADR cells [6]", "value": "decreased basal OCR levels as well as maximum respiratory capacity"}, {"measurement": "mitochondrial membrane potential (TMRE negative live cells)", "setting": "Molm13 cells [7]", "value": "caused a loss of mitochondrial membrane potential (TMRE negative cells) in a fraction of Molm13 cells"}, {"measurement": "reduction in the cell number", "setting": "MCF7 cells; [8]", "value": "significantly greater reduction in the cell number"}, {"measurement": "effect on viable cells", "setting": "MCF7 cells; 50 μM, 2 days", "value": "neither of the two MCJ agonists had an effect on MCF7 cells"}]}
